Results on 35 sequences are retold here after paper PMC12905440.

By UniProt entry, the sequences of proteins in these tests, tags left out.
UniProt A1Z9J5, entry or part of it: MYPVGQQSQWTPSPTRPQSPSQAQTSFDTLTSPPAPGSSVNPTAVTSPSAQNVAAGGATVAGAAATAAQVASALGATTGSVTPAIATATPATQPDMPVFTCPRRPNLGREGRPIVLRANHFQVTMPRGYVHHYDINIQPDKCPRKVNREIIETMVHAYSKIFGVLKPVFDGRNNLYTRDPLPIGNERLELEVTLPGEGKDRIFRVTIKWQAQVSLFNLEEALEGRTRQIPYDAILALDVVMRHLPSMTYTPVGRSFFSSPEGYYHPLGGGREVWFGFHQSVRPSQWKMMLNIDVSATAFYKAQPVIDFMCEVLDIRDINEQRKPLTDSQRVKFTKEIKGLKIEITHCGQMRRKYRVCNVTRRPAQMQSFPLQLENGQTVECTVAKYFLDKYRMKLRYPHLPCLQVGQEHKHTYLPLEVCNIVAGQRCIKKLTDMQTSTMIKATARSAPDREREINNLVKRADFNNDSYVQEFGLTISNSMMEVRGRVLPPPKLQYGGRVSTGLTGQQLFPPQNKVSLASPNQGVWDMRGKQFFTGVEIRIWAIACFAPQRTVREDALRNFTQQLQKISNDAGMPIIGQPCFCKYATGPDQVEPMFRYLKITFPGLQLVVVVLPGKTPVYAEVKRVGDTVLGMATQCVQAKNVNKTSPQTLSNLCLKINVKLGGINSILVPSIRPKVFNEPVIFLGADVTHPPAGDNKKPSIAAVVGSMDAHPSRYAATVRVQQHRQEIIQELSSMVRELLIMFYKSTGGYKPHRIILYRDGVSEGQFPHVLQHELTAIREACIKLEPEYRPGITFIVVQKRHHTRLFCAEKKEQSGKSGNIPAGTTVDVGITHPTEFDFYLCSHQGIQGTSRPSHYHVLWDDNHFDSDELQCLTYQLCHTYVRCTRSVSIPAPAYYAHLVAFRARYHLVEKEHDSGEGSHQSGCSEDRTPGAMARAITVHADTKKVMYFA

The target of data set [1] is Ago1 (RISC) (UniProt A1Z9J5). Description: double-filter binding. The settings on record: stoichiometric titration, filter binding: 25 mM HEPES-KOH pH 7.9, 110 mM KOAc, 3.5 mM Mg(OAc)2, 2 mM DTT, 25 C, protein in a lysate after overexpression, protein details: FLAG, label: 5' 32P.
For data set [2], the target named is Ago1 (RISC) (UniProt A1Z9J5). In words: RBNS. The conditions noted are these: RBNS: 20 mM HEPES-KOH pH 7.9, 100 mM KOAc, 3.5 mM Mg(OAc)2, 0.05% CHAPS, 2 mM DTT, 8% glycerol, BSA, tRNA, 25 C, 2 h, protein in a lysate after overexpression, protein details: FLAG, letters put together from the description.
For data set [3], the target named is FLAG-Ago1 (RISC) (Drosophila melanogaster) (UniProt A1Z9J5). In words: RNA Bind-n-Seq (filter binding, sequencing, MLE). The conditions noted are these: guide 5' phosphate, 20 mM HEPES-KOH pH 7.9, 100 mM potassium acetate, 3.5 mM magnesium acetate, 0.05% CHAPS, 2 mM DTT, 8% glycerol, 0.05 ug/ul BSA, 0.01 mg/ml yeast tRNA, 100 nM RNA library, recombinant protein, protein details: FLAG, only the motif is given.

Construct, isoform or probe ends are uncertain for at least one entry. For part of these data: Where cells or extracts were used, other partners may take part. For part of these data: At least one verdict was read from the data and is not stated in words by the source.

“AAAAAAAAAAAAAUUUUUGAUCUCUAAAU / UGAGAUCAUUUUGAAAGCUGAUU [bantam / quantification target]”: the binding result in the data set with Ago1 (RISC) [1] (bantam guide) is recorded as “binds”.
As to “ACCUCA / UGAGGUAGUAGGUUGUAUAGU [let-7 / 6mer-A1]”, the results for the Kd (with Ago1 (RISC) [2] (let-7 guide); in data set [3] (let-7 guide)) were 0.092 nM and 0.142 nM, respectively.
Turning to “AUCUCA / UGAGAUCAUUUUGAAAGCUGAUU [bantam / 6mer-A1]”, the Kd (as a rule, the constant that tells how readily two partners part at equilibrium) in data set [3] (bantam guide) is 1.1 nM.
As for “CCGUCC / UGGACGGAGAACUGAUAAGGGC [miR-184 / 6mer]”, the Kd in data set [3] (miR-184 guide) worked out at 0.084 nM.
As to “CCGUCCA / UGGACGGAGAACUGAUAAGGGC [miR-184 / 7mer-A1]”, the Kd with Ago1 (RISC) [2] (miR-184 guide) was determined as 0.037 nM; in data set [3] (miR-184 guide) it was 0.048 nM.
Take “CGUCCA / UGGACGGAGAACUGAUAAGGGC [miR-184 / 6mer-A1]”: the Kd in data set [3] (miR-184 guide) worked out at 0.765 nM.
Turning to “CUACCU / UGAGGUAGUAGGUUGUAUAGU [let-7 / 6mer-m8]”, the Kd (in the data set with Ago1 (RISC) [2] (let-7 guide); in data set [3] (let-7 guide)) was 0.439 nM each time.
“CUACCUC / UGAGGUAGUAGGUUGUAUAGU [let-7 / 7mer-m8]”: the Kd in data set [3] (let-7 guide) worked out at 0.01 nM.
The sequence “CUACCUCA / UGAGGUAGUAGGUUGUAUAGU [let-7 / 8mer]” showed an equilibrium dissociation constant (Kd) in the data set with Ago1 (RISC) [2] (let-7 guide) of 0.00454 nM.
Regarding “CUGUGA / CAUCACAGUCUGAGUUCUUGC [miR-11 / 6mer-m8]”, in data set [3] (miR-11 guide), the Kd was found to be 0.418 nM.
In the case of “CUGUGAU / CAUCACAGUCUGAGUUCUUGC [miR-11 / 7mer-m8]”, the Kd in data set [3] (miR-11 guide) worked out at 0.084 nM.
Same read-out and setting: the same measure for “CUGUGAUA / CAUCACAGUCUGAGUUCUUGC [miR-11 / 8mer]”: 0.018 nM.
With “GAAAAAAAAAAAAAAAAUCCGUCCUAAAU / UGGACGGAGAACUGAUAAGGGC [miR-184 / quantification target]”, the binding result with Ago1 (RISC) [1] (miR-184 guide, letters put together from the description) was “binds”.
As for “GAAAAAAAAAAAAAAUCUACCUCUAAAU / UGAGGUAGUAGGUUGUAUAGU [let-7 / quantification target]”, in the data set with Ago1 (RISC) [1] (let-7 guide), the binding result is given as “binds”.
With “GAAAAAAAAUAAAUAAAAGUGCCUUUAAAU / UAAGGCACGCGGUGAAUGCCAAG [miR-124 / quantification target]”, the binding result in the data set with Ago1 (RISC) [1] (miR-124 guide, letters put together from the description) was “binds”.
On to “GAAAAUUUUAAAAAAUCUGUGAUAAAAU / CAUCACAGUCUGAGUUCUUGC [miR-11 / quantification target]”, for which the binding result in the data set with Ago1 (RISC) [1] (miR-11 guide, letters put together from the description) was “binds”.
“GAUCUC / UGAGAUCAUUUUGAAAGCUGAUU [bantam / 6mer]”: the Kd in data set [3] (bantam guide) is 0.15 nM.
“GAUCUCA / UGAGAUCAUUUUGAAAGCUGAUU [bantam / 7mer-A1]”: the Kd in data set [3] (bantam guide) was found to be 0.052 nM.
Turning to “GCCUUA / UAAGGCACGCGGUGAAUGCCAAG [miR-124 / 6mer-A1]”, in data set [3] (miR-124 guide), the equilibrium dissociation constant (Kd) worked out at 0.646 nM.
“GUGCCU / UAAGGCACGCGGUGAAUGCCAAG [miR-124 / 6mer-m8]”: the Kd in data set [3] (miR-124 guide) is 0.299 nM.
On the same count and under the same terms, the figure for “GUGCCUU / UAAGGCACGCGGUGAAUGCCAAG [miR-124 / 7mer-m8]” is 0.053 nM; for “GUGCCUUA / UAAGGCACGCGGUGAAUGCCAAG [miR-124 / 8mer]” it is 0.022 nM.
Take “UACCUC / UGAGGUAGUAGGUUGUAUAGU [let-7 / 6mer]”: the Kd in data set [3] (let-7 guide) came to 0.075 nM.
Take “UACCUCA / UGAGGUAGUAGGUUGUAUAGU [let-7 / 7mer-A1]”: the Kd was determined as 0.0324 nM in the data set with Ago1 (RISC) [2] (let-7 guide) and 0.032 nM in data set [3] (let-7 guide).
In the case of “UCCGUC / UGGACGGAGAACUGAUAAGGGC [miR-184 / 6mer-m8]”, the Kd with Ago1 (RISC) [2] (miR-184 guide) was 0.409 nM; in data set [3] (miR-184 guide), 0.413 nM.
Consider “UCCGUCC / UGGACGGAGAACUGAUAAGGGC [miR-184 / 7mer-m8]”, for which, in data set [3] (miR-184 guide), the Kd stood at 0.014 nM.
The same measure, in the same setting: the same measure for “UCCGUCCA / UGGACGGAGAACUGAUAAGGGC [miR-184 / 8mer]”: 0.01 nM.
Consider “UGAUCU / UGAGAUCAUUUUGAAAGCUGAUU [bantam / 6mer-m8]”, for which the Kd (with Ago1 (RISC) [2] (bantam guide); in data set [3] (bantam guide)) was 1.36 nM in each case.
As to “UGAUCUC / UGAGAUCAUUUUGAAAGCUGAUU [bantam / 7mer-m8]”, in data set [3] (bantam guide), the dissociation constant (Kd) amounted to 0.078 nM.
For “UGAUCUCA / UGAGAUCAUUUUGAAAGCUGAUU [bantam / 8mer]”, the Kd with Ago1 (RISC) [2] (bantam guide) was determined as 0.0299 nM; in data set [3] (bantam guide) it was 0.03 nM.
On to “UGCCUU / UAAGGCACGCGGUGAAUGCCAAG [miR-124 / 6mer]”, for which the Kd in data set [3] (miR-124 guide) is 0.571 nM.
As for “UGCCUUA / UAAGGCACGCGGUGAAUGCCAAG [miR-124 / 7mer-A1]”, the Kd (in the data set with Ago1 (RISC) [2] (miR-124 guide); in data set [3] (miR-124 guide)) was 0.242 nM in each case.
As to “UGUGAUA / CAUCACAGUCUGAGUUCUUGC [miR-11 / 7mer-A1]”, the Kd in the data set with Ago1 (RISC) [2] (miR-11 guide, 70 pM given in bulge section) is 0.0917 nM; in the data set with Ago1 (RISC) [2] (miR-11 guide, 91.7 pM given in G:U section), 0.07 nM; in data set [3] (miR-11 guide) it was 0.092 nM.
Regarding “UUACCUCA / UGAGGUAGUAGGUUGUAUAGU [let-7 / 8mer-w8]”, the Kd in the data set with Ago1 (RISC) [2] (let-7 guide) was 0.0154 nM.
“UUGUGAUA / CAUCACAGUCUGAGUUCUUGC [miR-11 / 8mer-w8]”: the Kd with Ago1 (RISC) [2] (miR-11 guide) was 0.0612 nM.
